Measurements reported in PubChem BioAssay AID1224828 (NIAID, 2016).

Aim: 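Knock-downs that increase or decrease LPS-induced p65 nuclear translocation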 (primary screen)
Cells: mouse RAW264.7 G9 macrophage reporter cells (GFP-p65, Tnf promoter-mCherry)
Reagent: siRNA pool against mouse genes, 100 nM
Duration: 2 days siRNA transfection, then 40 min LPS before fixation
Challenge: LPS (Salmonella minnesota R595) at 10 ng/ml
Measured: 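Microscopy ratio of nuclear to perinuclear-ring GFP-p65 signal, scaled to the plate median; gene score is the average of two replicate robust z-scores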
Reading the numbers: p65 translocation robust z-score: higher = more nuclear NF-kappaB p65 after LPS than the plate median; nuclear/cytoplasmic p65 ratio: higher = more nuclear NF-kappaB p65
Call rule: 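Active if robust z is above 3.3 (negative regulators) or below -1.56, the Tlr4 control median (positive regulators); activity score 50 or more; control wells not called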
Meaning of the calls: active = hit (p65 shift raised or lowered); inactive = no clear change
In all, the deposit lists about 17,000 reagents; below is an unselected part. 762 of them (4.5%) were called active. 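Active calls include both raised and lowered p65 entry, mostly lowered; wells with fewer than 50 cells lack a z-score.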 Raw values vary from plate to plate and are shown uncorrected. A number with no mark means an inactive call.

target gene,PubChem SID,p65 translocation robust z-score,"nuclear/cytoplasmic p65 ratio, rep 1","nuclear/cytoplasmic p65 ratio, rep 2",low cell count flag
Tubgcp2,SID315474912,0.46,1.67,1.48,enough cells to score
1700020L24Rik,SID315472366,,1.37,1.29,fewer than 50 cells per well; well left out of scoring
Psg21,SID315474499,2.48,1.78,1.43,enough cells to score
Wee1,SID315470030,,1.86,1.64,fewer than 50 cells per well; well left out of scoring
Disp3,SID315479650,0.33,1.66,1.49,enough cells to score
Hnrnpf,SID315476147,0.81,1.61,1.35,enough cells to score
Or5ac21,SID315480156,0.1,1.57,1.48,enough cells to score
Trdv2-2,SID315481418,-0.46,1.38,1.4,enough cells to score
Syt12,SID315477271,0.32,1.55,1.23,enough cells to score
Nolc1,SID315474124,-0.84,1.59,1.41,enough cells to score
Sp110,SID315476774,-0.44,1.55,1.54,enough cells to score
Cibar1,SID315473412,1.7,1.64,1.8,enough cells to score
Birc6,SID315465674,-0.08,1.66,1.55,enough cells to score
Tpx2,SID315474462,,1.15,0.868,fewer than 50 cells per well; well left out of scoring
Th,SID315469703,0.46,1.62,1.55,enough cells to score
Adam26a,SID315466400,-0.85,1.53,1.5,enough cells to score
Or51k2,SID315480039,0.95,1.61,1.35,enough cells to score
Paip1,SID315478208,0.99,1.53,1.39,enough cells to score
B230354K17Rik,SID315481220,2.59,1.94,1.92,enough cells to score
Sgms2,SID315474974,,1.2,1.27,fewer than 50 cells per well; well left out of scoring
Rai14,SID315475169,0.68,1.46,1.29,enough cells to score
Ssty2,SID315473956,,1.24,1.1,fewer than 50 cells per well; well left out of scoring
Tm9sf4,SID315476169,,1.58,1.33,fewer than 50 cells per well; well left out of scoring
Lrriq4,SID315473501,2.24,1.6,1.57,enough cells to score

In a second layout: results already given
Birc6 [SID315465674] | p65 translocation robust z-score = -0.08; nuclear/cytoplasmic p65 ratio, rep 1 = 1.66; nuclear/cytoplasmic p65 ratio, rep 2 = 1.55; low cell count flag = enough cells to score
Tpx2 [SID315474462] | nuclear/cytoplasmic p65 ratio, rep 1 = 1.15; nuclear/cytoplasmic p65 ratio, rep 2 = 0.868; low cell count flag = fewer than 50 cells per well; well left out of scoring
Th [SID315469703] | p65 translocation robust z-score = 0.46; nuclear/cytoplasmic p65 ratio, rep 1 = 1.62; nuclear/cytoplasmic p65 ratio, rep 2 = 1.55; low cell count flag = enough cells to score
